To fix the notation:
B1: Bovine lipoprotein lipase, P11151 29-478 (enzyme)
chain: DRITGGKDFRDIESKFALRTPEDTAEDTCHLIPGVTESVANCHFNHSSKTFVVIHGWTVTGMYESWVPKLVAALYKREPDSNVIVVDWLSRAQQHYPVSAGYTKLVGQDVAKFMNWMADEFNYPLGNVHLLGYSLGAHAAGIAGSLTNKKVNRITGLDPAGPNFEYAEAPSRLSPDDADFVDVLHTFTRGSPGRSIGIQKPVGHVDIYPNGGTFQPGCNIGEALRVIAERGLGDVDQLVKCSHERSVHLFIDSLLNEENPSKAYRCNSKEAFEKGLCLSCRKNRCNNMGYEINKVRAKRSSKMYLKTRSQMPYKVFHYQVKIHFSGTESNTYTNQAFEISLYGTVAESENIPFTLPEVSTNKTYSFLLYTEVDIGELLMLKLKWISDSYFSWSNWWSSPGFDIGKIRVKAGETQKKVIFCSREKMSYLQKGKSPVIFVKCHDKSLNRKSG
B2: Bovine lipoprotein lipase (enzyme, UniProt P11151 29-478, looked up)
chain: B1 chain
notes: lipoprotein lipase (LPL), bovine, purified from bovine milk; In the RICS experiments 10 nM of the LPL carried ATTO610 (NHS ester labelling) and 190 nM was unlabelled; it says that most experiments were done with bovine LPL; also called bLPL; bovine LPL; source: purified from bovine milk

Sequences of proteins named here, by UniProt entry; tags and fusion partners are left off. Residues count along the entry.
UniProt P02769, residues 25-607: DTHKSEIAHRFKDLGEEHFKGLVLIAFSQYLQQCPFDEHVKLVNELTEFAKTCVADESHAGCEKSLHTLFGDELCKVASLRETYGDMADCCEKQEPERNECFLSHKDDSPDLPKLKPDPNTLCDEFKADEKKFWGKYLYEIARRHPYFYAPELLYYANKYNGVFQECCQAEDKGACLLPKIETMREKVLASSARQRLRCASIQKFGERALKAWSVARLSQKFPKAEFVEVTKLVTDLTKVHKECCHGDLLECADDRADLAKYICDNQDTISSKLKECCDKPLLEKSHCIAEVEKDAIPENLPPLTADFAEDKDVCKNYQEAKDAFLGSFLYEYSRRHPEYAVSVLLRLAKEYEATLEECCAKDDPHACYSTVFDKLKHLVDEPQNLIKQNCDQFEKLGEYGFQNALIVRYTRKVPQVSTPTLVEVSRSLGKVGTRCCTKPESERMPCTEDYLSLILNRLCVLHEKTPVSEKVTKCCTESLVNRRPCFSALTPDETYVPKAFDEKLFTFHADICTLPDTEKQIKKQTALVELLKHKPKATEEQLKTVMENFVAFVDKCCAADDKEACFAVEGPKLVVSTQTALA

Assay [1] has as its target B2. Put plainly: SPR; Biacore 3000; bLPL (1.7 fmol/mm2) held on immobilised anti-LPL monoclonal antibody 5D2; BSA flowed over; 20 mM HEPES, 150 mM NaCl, pH 7.4; 25°C; both purified. (In general: Surface plasmon resonance follows binding to a sensor surface in real time, without labels.)
Another assay concerns the target T1, Human GPIHBP1 (human) (UniProt Q8IV16).
T1 sequence: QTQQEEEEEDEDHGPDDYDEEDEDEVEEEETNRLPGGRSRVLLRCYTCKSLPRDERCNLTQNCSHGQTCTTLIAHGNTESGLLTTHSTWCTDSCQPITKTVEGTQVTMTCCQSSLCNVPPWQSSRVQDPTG
Put plainly: SPR; reference surface of a3: BSA flowed over amine-coupled GPIHBP1 without bLPL; 20 mM HEPES, 150 mM NaCl, pH 7.4; 25°C; both purified.

Assay [2] addresses T2, Bovine lipoprotein lipase (bovine), P11151.
T2 chain: B1 chain
In words: raster image correlation spectroscopy (RICS); 200 nM LPL (10 nM LPL-ATTO610 + 190 nM unlabelled) with 50 or 2 mg/ml BSA, no heparin; 20 mM HEPES pH 7.4, 150 mM NaCl; room temperature, up to 2 h; nsTEM of unlabelled LPL in like conditions; both purified. Particulars: remark: other sources report otherwise.

Assay [3] concerns the target T2, Bovine lipoprotein lipase (bovine), …. In words: raster image correlation spectroscopy (RICS); 200 nM LPL (10 nM LPL-ATTO610 + 190 nM unlabelled) with 10 IU/ml heparin, no BSA; 20 mM HEPES pH 7.4, 150 mM NaCl; room temperature; nsTEM of unlabelled LPL in like conditions; both purified. To be noted: remark: other sources report otherwise.
For assay [4], the target named is B2. Put plainly: raster image correlation spectroscopy (RICS); 200 nM LPL (10 nM LPL-ATTO610 + 190 nM unlabelled) with BSA (50 or 2 mg/ml) and 10 IU/ml heparin added after 15 min; 20 mM HEPES pH 7.4, 150 mM NaCl; room temperature; nsTEM of unlabelled LPL in like conditions; both purified.
Assay [5] addresses B2. In words: raster image correlation spectroscopy (RICS); 10 nM LPL with 50 mg/ml BSA, no heparin; 20 mM HEPES pH 7.4, 150 mM NaCl; room temperature; both purified.

Results are given in words; binding and its absence hold for the method and conditions named. Some binding calls cover weakened binding; strength is not graded here.

Regarding “Bovine serum albumin (from UniProt P02769 25-607)”, the binding result in assay [1] is given as “binds weakly”; in the assay with Human GPIHBP1 (human), “no binding”.

In the case of B1, the binding entry in assay [2] and in assay [3] was “binds” each time.

On to B2, for which the binding entry in assay [4] is “no binding (condition: with both BSA and 10 IU/ml heparin)”; in assay [5] it was “binds weakly”.

Source of the values: publication PMC10096250, “Combined action of albumin and heparin regulates lipoprotein lipase oligomerization, stability, and ligand interactions” (PLOS ONE, 2023).
